Measured values from the supplement of paper PMC6078165.
Values are relative to the signal before dosing, not to a vehicle control; the signal also falls without drug.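 The tumor cells are basal-like or mesenchymal-like triple-negative breast cancer lines cultured without fibroblasts. Reduced red signal indicates lost mitochondrial integrity, serving as a proxy for apoptotic death.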

What was measured:
Test in all cases: relative JC-1 red fluorescence (viability) vs pre-drug, monoculture (fraction); higher = more viable cancer cells
Settings in all cases: coculture fibroblast: none (monoculture)
BT20 = tested on: BT20
Description: (§1)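 JC-1 labelled TNBC cells grown in monoculture (density kept equal with unlabelled cancer cells) in 384-well plates in FluoroBrite medium, treated with one of 42 anticancer drugs at 0.1, 1, 10 or 100 uM. JC-1 red fluorescence (mitochondrial integrity, surrogate of apoptotic death) was read by plate reader every 8 h for 72 h. Values are normalised to each well's pre-drug value, with background from alamethicin. The stock of one drug was tenfold lower, so its dose labels may be too high. Monoculture values are repeated alongside each fibroblast plate and are averaged here.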

MDAMB468 = tested on: MDAMB468
Description: as §1

HCC1143 = tested on: HCC1143
Description: as §1

Hs578T = tested on: Hs578T
Description: as §1

CN(C)CCOc1ccc(/C(=C(/CCCl)c2ccccc2)c2ccccc2)cc1 [Toremifene]
relative JC-1 red fluorescence
Settings	8 h	16 h	24 h	32 h	40 h	48 h	56 h	64 h	72 h
BT20, 0.1 µM	0.966	0.836	0.775	0.7	0.639	0.61	0.572	0.55	0.538
BT20, 1 µM	0.9795	0.9095	0.839	0.781	0.766	0.748	0.724	0.702	0.691
BT20, 10 µM	0.952	0.8718	0.884	0.862	0.86	0.865	0.854	0.853	0.848
BT20, 100 µM	0.374	0.232	0.211	0.148	0.109	0.08818	0.0602	0.039	0.0217
HCC1143, 0.1 µM	0.91429	0.795	0.723	0.673	0.63	0.593	0.562	0.549	0.53
HCC1143, 1 µM	0.9019	0.831	0.765	0.715	0.665	0.629	0.605	0.579	0.562
HCC1143, 10 µM	0.9435	0.8923	0.8433	0.8035	0.7565	0.7022	0.6707	0.646	0.615
HCC1143, 100 µM	0.355	0.266	0.227	0.181	0.138	0.113	0.0856	0.0605	0.0378
Hs578T, 0.1 µM	0.8485	0.69	0.703	0.634	0.59	0.569	0.551	0.553	0.548
Hs578T, 1 µM	0.868	0.77	0.718	0.655	0.62	0.588	0.568	0.568	0.554
Hs578T, 10 µM	0.895	0.895	0.852	0.882	0.883	0.898	0.908	0.899	0.888
Hs578T, 100 µM	0.442	0.333	0.314	0.213	0.16087	0.1211	0.0848	0.0589	0.0317
MDAMB468, 0.1 µM	0.8924	0.809	0.729	0.6537	0.6113	0.595	0.549	0.519	0.505
MDAMB468, 1 µM	0.9191	0.872	0.8301	0.78005	0.7423	0.716	0.683	0.661	0.653
MDAMB468, 10 µM	0.859	0.765	0.776	0.839	0.75	0.7145	0.896	0.852	0.769
MDAMB468, 100 µM	0.556	0.417	0.354	0.288	0.228	0.196	0.147	0.111	0.0848
